# Measurements taken from PubChem BioAssay AID1688 (National Center for Advancing Translational Sciences (NCATS), 2009).
# Out of some 220,000 compounds screened, about 2,400 (1.1%) were called active. This list was built around the results that the source calls inconclusive (neither active nor inactive); the mix of calls is not that of the screen. Calls come from the whole dose curve; as a rule, active = well fitted inhibition curve with a large enough effect; inconclusive = small, poorly fitted or top-dose-only effect, or effect the other way; inactive = no such curve, though single readings can be large or run the other way. A potency beside an inconclusive call is a rough fit, not a confirmed value.
# Test: qHTS Multiplex Assay to Identify Dual Action Probes in a Cell Model of Huntington: Aggregate Formation (GFP); note: nearly all actives have a fitted effect of over 60% in size
# Conditions: PC12 HttQ103-GFP aggregates, Acumen cytometry, 40 h; activity change, negative = inhibition: at 46.1 µM (top of the series) unless noted
# Method in brief: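 Inducible Q103 Huntingtin exon 1–GFP PC12 line, 1500 cells/well in phenol red free DMEM with 5% equine and 5% calf serum. Tebufenozide 100 nM induced expression; compounds titrated; aggregates quantified by cytometry.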
# % is set by controls: 0 for no effect and ±100 for the full control effect; potency is the fitted concentration of half-maximal effect.
Structure (SMILES),Potency,"activity change, negative = inhibition"
CN(C)c1cc[n+](CC(=O)Nc2ccc(Oc3ccccc3)cc2)cc1,"inconclusive: 10 µM [inhibitor, single point]",–
Cc1ccc(NC(=O)c2cc3c(s2)CCCC3)cc1S(=O)(=O)Nc1ccccc1Cl,"inconclusive: 35.5 µM [inhibitor, single point]",–
Cc1cccc(NC(=S)NC(=O)/C=C/c2ccco2)n1,"inconclusive: 35.5 µM [activator, partial curve, poor fit]",–
CCN(CC)CC(=O)Nc1ccc2c(c1)N(C(=O)CN(CC)CC)c1ccccc1CC2,–,inactive: 1.68%
C=CCc1cccc(/C=C/c2cc(=O)c3ccccc3[nH]2)c1O,active: 3.16 µM,–
O=C(N/N=C/c1cc([N+](=O)[O-])ccc1O)C1CCCCC1,active: 10 µM,–
CCOC(=O)C1=C(CN2c3ccccc3CC2C)NC(=O)NC1c1ccccc1 (stereo unspecified),"inconclusive: 35.5 µM [inhibitor, single point]",–
CN(C)c1ccc(CNC(=O)C2CCN(S(=O)(=O)c3ccc4c(c3)CCC(=O)N4)CC2)cc1,–,inactive: 28.3%
CSc1nc2ccc(NS(=O)(=O)c3cccc(Cl)c3Cl)cc2s1,–,inactive: 1.79%
CCCNC(=O)c1cc2c3ccccc3n(C)c2s1,–,inactive: -4.81%
CCOC(=O)N1CCN(C(=O)C(C)N(c2ccc(Oc3ccccc3)cc2)S(C)(=O)=O)CC1 (stereo unspecified),"inconclusive: 35.5 µM [inhibitor, single point]",–
CCOc1ccccc1NC(=O)COC(=O)c1cc[n+]([O-])cc1,–,inactive: -10.8% [at 9.22 µM]
CC(=O)c1ccc(NC(=O)CN2C(=O)/C(=C/C(C)=C/c3ccccc3)SC2=S)cc1,"inconclusive: 11.2 µM [activator, single point]",–
Cc1ccc2[nH]c3c(N4CCN(Cc5ccc6c(c5)OCO6)CC4)ncnc3c2c1,–,inactive: -5.31%
OCCCNc1cc(-c2ccnc(Nc3cccc(Cl)c3)n2)ccn1,active: 0.708 µM,–
COCCn1c(CN2CCC(Cc3ccccc3)CC2)nc2c1c(=O)n(C)c(=O)n2C,"inconclusive: 6.31 µM [inhibitor, full curve]",–
CCN1CCN(C2=CC3=CC(=C(C#N)C#N)CCC3CC2)CC1 (stereo unspecified),active: 2.82 µM,–
C=CCn1c(=O)c(C(=O)Nc2ccccc2C(=O)OCC)c(O)c2ccccc21,"inconclusive: 35.5 µM [inhibitor, single point]",–
Clc1ccc(-c2nnc(C3CC3)o2)cc1,–,inactive: -6.58% [at 9.22 µM]
O=C(OCc1cc(=O)n2c(n1)sc1ccccc12)c1ccc(O)cc1O,"inconclusive: 22.4 µM [activator, single point]",–
Cc1ccc(F)c(NC=C2C(=O)OC(C)(C)OC2=O)c1,–,inactive: -5.24%
CC(C)N1CCN(Cc2ccc(-c3ccccc3Cl)o2)CC1CCO (stereo unspecified),–,inactive: -16.5% [at 9.22 µM]
CC(NCC(O)COCCC12CC3CC(CC(C3)C1)C2)c1ccccc1 (stereo unspecified),"inconclusive: 22.4 µM [inhibitor, single point]",–
O=C(NNS(=O)(=O)c1ccc(F)cc1F)C1Cc2c(ccc3ccccc23)O1 (stereo unspecified),"inconclusive: 15.8 µM [inhibitor, single point]",–

Structure (SMILES),Potency,"activity change, negative = inhibition"
CSc1nc(N(C)C)c2ccccc2n1,"inconclusive: 0.562 µM [activator, full curve, poor fit]",–
N#CC1=C(N)C2=C(N3CCCCC3)CCCC2C1(C#N)C#N (stereo unspecified),–,inactive: -8.76%
COc1ccc(N2CCN(C(=O)COc3ccc(Cl)cc3Cl)CC2)cc1,"inconclusive: 22.4 µM [inhibitor, single point]",–
Cc1noc(C)c1C(=O)Nc1nc(C23CC4CC(CC(C4)C2)C3)cs1,"inconclusive: 25.1 µM [inhibitor, partial curve]",–
COc1ccccc1OCC(=O)Nc1cc(Cl)ccc1Oc1ccccc1,"inconclusive: 5.62 µM [inhibitor, partial curve]",–
Cc1cccc(C(=O)NC(=S)NNC(=O)Cc2ccccc2)c1,"inconclusive: 14.1 µM [inhibitor, partial curve]",–
Cc1nnc(C)c2c(C)n(-c3ccc(Br)cc3)c(C)c12,–,inactive: 2.64%
COc1c[nH]n(C2CCCCC2)c(=O)c1=O,–,inactive: -11.8%
O=C(NC(=S)N1CCCCCC1)c1ccccc1Cl,–,inactive: -0.842%
O=C(Nc1nc2cc(Cl)ccc2s1)C1CCCN(S(=O)(=O)c2cccc3cccnc23)C1 (stereo unspecified),"inconclusive: 35.5 µM [inhibitor, single point]",–
CC1(C)CC(=O)c2c(nc(SCC(=O)Nc3nsc(-c4ccccc4)n3)c(C#N)c2-c2ccccc2)C1,"inconclusive: 2.24 µM [inhibitor, single point]",–
CN(C)c1ccnc2sc3c(=O)n(-c4ccccc4)cnc3c12,"inconclusive: 8.91 µM [inhibitor, full curve, poor fit]",–
Cc1ccc(C(=O)N2CCN(c3ccc(NC(=O)c4cccnc4)cc3)CC2)cc1,"inconclusive: 11.2 µM [inhibitor, partial curve]",–
N#Cc1c2n(c3c(=S)nc[nH]c13)CCCCC2,–,inactive: 11.6%
Cc1ccccc1CS(=O)(=O)Cc1ccc(C(=O)NCC2CCCO2)o1 (stereo unspecified),"inconclusive: 35.5 µM [inhibitor, single point]",–
CCc1c(C(=O)Nc2ccc(S(=O)(=O)N3CCOCC3)cc2)csc1C,"inconclusive: 2.82 µM [inhibitor, partial curve]",–
CSc1ccc(/C=C(\C#N)C(=O)Nc2cccc(C)c2)cc1,"inconclusive: 5.62 µM [activator, single point]",–
Cc1cccc(C)c1NC1=NC(=S)N(c2ccccc2)C12CCOC(C)(C)C2 (stereo unspecified),"inconclusive: 35.5 µM [inhibitor, single point]",–
CCC1CCc2c(sc(NC(=O)c3ccco3)c2C(N)=O)C1 (stereo unspecified),"inconclusive: 11.2 µM [inhibitor, partial curve]",–
CCCCNC(=O)Cn1cnc2c(cnn2-c2ccc(C)c(C)c2)c1=O,–,inactive: -2.41%
CCSc1nc(N2CCCCC2)c2c(c1C#N)CCCC2,"inconclusive: 11.2 µM [inhibitor, partial curve]",–
COc1cc(C(=O)NCCCNc2nc3cc(C)c(C)cc3cc2C#N)cc(OC)c1OC,–,inactive: 3.91%
Cc1nn(CCc2nn[nH]n2)c2nc(-c3ccccc3)cc(C(F)(F)F)c12,–,inactive: -9.24%
Cc1ccccc1C(=O)c1c[nH]c(C(=O)NCc2ccco2)c1,"inconclusive: 3.98 µM [inhibitor, partial curve]",–

# One compound at a time, as listed above:
# `N#Cc1c2n(c3c(=S)nc[nH]c13)CCCCC2` as listed: activity change, negative = inhibition: inactive: 11.6%
# `COc1c[nH]n(C2CCCCC2)c(=O)c1=O` as listed: activity change, negative = inhibition: inactive: -11.8%
# `CCc1c(C(=O)Nc2ccc(S(=O)(=O)N3CCOCC3)cc2)csc1C` as listed: Potency: inconclusive: 2.82 µM [inhibitor, partial curve]
# `Cc1cccc(C(=O)NC(=S)NNC(=O)Cc2ccccc2)c1` as listed: Potency: inconclusive: 14.1 µM [inhibitor, partial curve]

# (further entries)

Structure (SMILES),Potency,"activity change, negative = inhibition"
CC(=O)c1cccc(NC(=O)NCc2ccco2)c1,"inconclusive: 1.26 µM [inhibitor, single point]",–
CCc1ccc(-c2cc(C(=O)N/N=C/c3c[nH]c4ccccc34)[nH]n2)cc1,"inconclusive: 35.5 µM [inhibitor, single point]",–
O=C(Cc1ccccc1)NNC(=O)Nc1ccc(Cl)c(Cl)c1,"inconclusive: 35.5 µM [inhibitor, single point]",–
Cc1ccc(-n2ncc3c(SCc4cccnc4)ncnc32)c(C)c1,"inconclusive: 5.01 µM [inhibitor, full curve]",–
O=C(CCc1ccc(S(=O)(=O)NC2CCCCC2)cc1)NCc1cccnc1,–,inactive: 42.2% [at 9.22 µM]
COc1ccc2c(c1)c(C(=O)N/N=C/c1cccc(Br)c1)c(C)n2C,–,inactive: -4.53% [at 9.22 µM]
O=C(N/C(=C/c1cccs1)C(=O)N1CCOCC1)c1ccccc1,"inconclusive: 0.562 µM [activator, full curve, poor fit]",–
O=C(Oc1cccnc1)c1cc(S(=O)(=O)N2CCOCC2)ccc1Cl,"inconclusive: 1 µM [inhibitor, full curve]",–
Cc1cccc(N=N/C(=C\O)C(=O)c2ccc(Br)cc2)c1,"inconclusive: 35.5 µM [inhibitor, single point]",–
CCOc1cccc(OCCCCN2CCOCC2)c1,"inconclusive: 28.2 µM [inhibitor, single point]",–
CCC1CCC(NC2CCCCNC2=O)CC1 (stereo unspecified),"inconclusive: 35.5 µM [inhibitor, partial curve, poor fit]",–
O=C(CCc1ccc(S(=O)(=O)N2CCOCC2)cc1)Nc1ccc2ccccc2c1,"inconclusive: 10 µM [inhibitor, partial curve]",–
Cc1nn(CC(=O)Nc2c(C)n(C)n(-c3ccccc3)c2=O)c(C)c1[N+](=O)[O-],"inconclusive: 14.1 µM [activator, partial curve, poor fit]",–
CC(C)NCc1c(O)c(Br)cc2oc3c(c12)CCCC3,–,inactive: -17.2%
Cc1cc(C)c2nc3sc(C(=O)N4CCOCC4)c(N)c3cc2c1,"inconclusive: 0.282 µM [inhibitor, full curve]",–
O=S(=O)(NCCc1csc(-c2ccc(C(F)(F)F)cc2)n1)c1ccc2c(c1)OCCO2,"inconclusive: 28.2 µM [inhibitor, single point]",–
Cc1cc(/C=C2\SC(=Nc3ccc(F)cc3)NC2=O)c(C)n1-c1ccc(S(N)(=O)=O)cc1,"inconclusive: 22.4 µM [inhibitor, single point]",–
Cc1cc(C)n(-c2nnc3c4ccccc4n(C)c3n2)n1,–,inactive: -18.1% [at 9.22 µM]
CCCCN(CCCC)C1=Nc2ccccc2N/C1=C(/C#N)C(=O)OCC,"inconclusive: 35.5 µM [inhibitor, single point]",–
CC[n+]1c(/C=C2\Sc3ccccc3N2C)ccc2cccc(C)c21,active: 1 µM,–
CNc1ccccc1C(C)(C)c1cc(C)[nH]n1,–,inactive: 0.257%
N#CC(c1ccccc1)c1ccc(C(=O)c2ccc(F)cc2)cc1 (stereo unspecified),"inconclusive: 14.1 µM [inhibitor, single point]",–
Nc1ncn([C@@H]2O[C@H](CO)[C@@H](O)[C@H]2O)c(=O)n1,active: 12.6 µM,–
